For two molecules, binding results are on record in patent US20170035908A1.

These are yes or no findings as the source states them, for the method shown. Some entries that bind do so weakly or less than the wild type.

For assay [1], the target named is T1, linear phage-displayed peptide ….
T1 sequence (peptide): WTWNITKEYPQP
Briefly: phage-displayed mutational library, panned and screened as before (hPAM4 and mPAM4).

For assay [2], the target named is T2, linear phage-displayed peptide ….
T2 sequence (peptide): WTWNITKAYPLP
Briefly: phage-displayed peptide screened on hPAM4 and mPAM4.

B1: murine PAM4 antibody (antibody, V domains shown)
VL: DIVMTQSPAIMSASPGEKVTMTCSASSSVSSSYLYWYQQKPGSSPKLWIYSTSNLASGVPARFSGSGSGTSYSLTISSMEAEDAASYFCHQWNRYPYTFGGGTKLEIK
V domain: EVQLQESGPELVKPGASVKMSCKASGYTFPSYVLHWVKQKPGQGLEWIGYINPYNDGTQYNEKFKGKATLTSDKSSSTAYMELSRLTSEDSAVYYCARGFGGSYGFAYWGQGTLITVSA
Turning to B1, in assay [1], the binding entry is “binds”.

B2: humanized PAM4 antibody (antibody, V domains shown)
VH: QVQLQQSGAEVKKPGASVKVSCEASGYTFPSYVLHWVKQAPGQGLEWIGYINPYNDGTQYNEKFKGKATLTRDTSINTAYMELSRLRSDDTAVYYCARGFGGSYGFAYWGQGTLVTVSS
VL: DIQLTQSPSSLSASVGDRVTMTCSASSSVSSSYLYWYQQKPGKAPKLWIYSTSNLASGVPARFSGSGSGTDFTLTISSLQPEDSASYFCHQWNRYPYTFGGGTRLEIKR
In the case of B2, the binding result in assay [2] and in assay [1] was “binds” in each case.
